The nature of this data set: TruHits counter assay (AlphaLISA interference). As to conditions: 0.125 to 400 μM. (Alpha assays give light when donor and acceptor beads are brought close together.)

For the molecule `COc1ccc2cc([C@H]3CC(c4cn(C)c5cc(OC)ccc45)=NN3C(=O)CCCC(=O)O)ccc2c1` [DAZLN-55], the “concentration above which compound interfered with the AlphaLISA assay” value is given as “above 10 μM”.

As for `COc1ccc2cc([C@H]3CC(c4cn(C)c5cc(OC)ccc45)=NN3C(=O)CCCC(=O)NCC(=O)N3CCOCC3)ccc2c1` [DAZLN-56], the “concentration above which compound interfered with the AlphaLISA assay” value is on record as “above 10 μM”.

On to `CCOc1ccc2cc(C3CC(c4ccc(I)cc4)=NN3C(=O)CCCC(=O)O)c(Cl)nc2c1` (stereo not drawn) [TDRL-551], for which the “interference with the AlphaLISA assay” value is “did not”.
